Reference: US5712367A (Rhone-Poulenc Chimie, priority 1989, dated 1998)

Test: general procedure: solution-phase peptide synthesis
Details: for step yield: late stage modification step

Substance	step yield (HPLC assay after Boc cleavage)	step yield (relative to the N-tert-butyloxycarbonyl-L-tyrosyl-glycyl-glycyl-L-phenylalanyl-L-leucine)	crude yield (whole synthesis)	isolated yield (whole synthesis)	crude yield (whole synthesis, relative to the L-leucine 4(hydroxymethyl)biphenyl 3-methylbenzoate ester hydrochloride)
L-tyrosyl-glycyl-glycyl-L-phenylalanyl-L-leucine	100%	92.5%	–	–	–
N-tert-butyloxycarbonyl-L-tyrosyl-glycyl-glycyl-L-phenylalanyl-L-leucine	–	–	100%	71%	94.5%
